Data reported in patent US20160152676A1 (COLORADO STATE UNIVERSITY RESEARCH FOUNDATION, published 2016).

Molecular target: T1, NscGFP-5helix (HIV-1)
T1 construct: Expressed in E. coli for split-spGFP reassembly; also called NspGFP-5-helix; N-spGFP-5-helix
Experiment: split-spGFP reassembly in E. coli, flow cytometry

Binder | binding result
GLUE-Cpep-CscGFP (designed binder, Expressed in E. coli for split-spGFP reassembly; also called CspGFP-GLUE-Cpep; C-spGFP fusion of GLUE-Cpep) MEYWHYVETTSSGQPLLREGEKDIAIDQSVGLYHGKSKILQRQRGRIFLTSQRIIYIDDAKPTQNSLGLELDDLAYVNYSSGFLTRSPALILFFKDPSSSTEFVQLSFRKSDGVWFSWATEIALYTILIHSLIEESQNQQEKNEQELLGGSGGSGTSGGSGKNGIKAKFKIRHNVKDGSVQLADHYQQNTPIGRGPVLLPRNHYLSTRSKLSKDPKEKRDHMVLLEFVTAAGIKHGRDERYK | binds
C-peptide-CscGFP (other, Expressed in E. coli for split-spGFP reassembly; also called CspGFP-Cpep; C-spGFP fusion of the gp41 C-peptide) MGWMEWDREINNYTSLIHSLIEESQNQQEKNEQELLGGSGGSGTSGGSGKNGIKAKFKIRHNVKDGSVQLADHYQQNTPIGRGPVLLPRNHYLSTRSKLSKDPKEKRDHMVLLEFVTAAGIKHGRDERYK | binds
